Experimental data: PubChem BioAssay AID1259314 (Drosophila RNAi Screening Center, 2017)

Aim: 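Transmembrane protein genes affecting ATP after manganese overload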 (primary screen)
System: Drosophila S2R+ cells
Reagent: long dsRNA against Drosophila genes
Time to read-out: 5 days (4 days knock-down, then 1 day metal exposure)
Conditions: manganese chloride added to 15 mM for 24 hours
Read-out: 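Cellular ATP measured by luciferase light, scaled to the plate mean, averaged across replicates and z-scored over plates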
Direction: mean ATP z-score: higher = more ATP than the plate average, more viable cells under manganese
Active means: 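Called active when the mean ATP z-score is above 1.5 or below -1.5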
Meaning of the calls: active = strong ATP change, up or down; inactive = no strong ATP change
The deposit covers about 3,100 reagents; below is a part drawn at random. 289 of all reagents (9.3%) count as active. 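Active includes both higher and lower ATP than plate average; check the z-score sign for direction.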 Reagents against one gene are numbered here. A plus sign joins genes that one reagent is predicted to hit. The record does not give: the amount of reagent.

With CG17600 (GeneID 33141) #1, what does the deposit list?
mean ATP z-score: 0.0639; call: inactive

With CG17600 (GeneID 33141) #2, what was measured?
mean ATP z-score: 0.168; call: inactive

Which result is listed for CG17600 (GeneID 33141) #3?
mean ATP z-score: 0.0379; call: inactive

With Hsepi (GeneID 35569) #1, what was measured?
mean ATP z-score: -1.13; call: inactive

For Hsepi (GeneID 35569) #2, what does the deposit list?
mean ATP z-score: -1.48; call: inactive

What is on record for Strn-Mlck (GeneID 36753) #1?
mean ATP z-score: 0.117; call: inactive

What did the screen give for Strn-Mlck (GeneID 36753) #2?
mean ATP z-score: -1.1; call: inactive

What is on record for Strn-Mlck (GeneID 36753) #3?
mean ATP z-score: 0.56; call: inactive

What did the screen give for Gr61a (GeneID 38098) #1?
mean ATP z-score: 0.599; call: inactive

What did the screen give for Gr61a (GeneID 38098) #2?
mean ATP z-score: -0.689; call: inactive

With Sfxn1-3 (GeneID 40552), what was measured?
mean ATP z-score: 0.809; call: inactive

Which result is listed for Zip48C (GeneID 36273) #1?
mean ATP z-score: -1.18; call: inactive

For Zip48C (GeneID 36273) #2, what was measured?
mean ATP z-score: 0.698; call: inactive

What is on record for Pen (GeneID 34338) #1?
mean ATP z-score: -0.25; call: inactive

With Pen (GeneID 34338) #2, what was measured?
mean ATP z-score: 0.542; call: inactive

How did the screen score COX6AL2 + Ir75d #1?
mean ATP z-score: -1.17; call: inactive

What is on record for COX6AL2 + Ir75d #2?
mean ATP z-score: 0.0474; call: inactive

For ru (GeneID 44856) #1, how do the results read?
mean ATP z-score: -0.188; call: inactive

With ru (GeneID 44856) #2, what does the deposit list?
mean ATP z-score: -0.208; call: inactive

How did the screen score CG5810 (GeneID 42513) #1?
mean ATP z-score: 0.443; call: inactive

What did the screen give for CG5810 (GeneID 42513) #2?
mean ATP z-score: 1.33; call: inactive

For CG17075 (GeneID 33191) #1, how do the results read?
mean ATP z-score: 3.82; call: active

What did the screen give for CG17075 (GeneID 33191) #2?
mean ATP z-score: 0.265; call: inactive

For slif (GeneID 40510) #1, what was measured?
mean ATP z-score: 2.63; call: active

For slif (GeneID 40510) #2, how do the results read?
mean ATP z-score: 1.28; call: inactive

What did the screen give for Ir76b (GeneID 40198) #1?
mean ATP z-score: 0.734; call: inactive

With Ir76b (GeneID 40198) #2, what does the deposit list?
mean ATP z-score: -0.227; call: inactive

What is on record for CG32081 (GeneID 326194) #1?
mean ATP z-score: -1.26; call: inactive

What is on record for CG32081 (GeneID 326194) #2?
mean ATP z-score: 0.229; call: inactive

What did the screen give for CG17751 (GeneID 42336) #1?
mean ATP z-score: 1.44; call: inactive

With CG17751 (GeneID 42336) #2, what was measured?
mean ATP z-score: 0.772; call: inactive

With ACXB (GeneID 53427) #1, what was measured?
mean ATP z-score: -1.24; call: inactive

For ACXB (GeneID 53427) #2, what was measured?
mean ATP z-score: 1.33; call: inactive

For O-fut1 (GeneID 36564) #1, what does the deposit list?
mean ATP z-score: -1.47; call: inactive

With O-fut1 (GeneID 36564) #2, what does the deposit list?
mean ATP z-score: 1.61; call: active

For CG8837 (GeneID 33545) #1, what was measured?
mean ATP z-score: 0.0816; call: inactive

What is on record for CG8837 (GeneID 33545) #2?
mean ATP z-score: -0.494; call: inactive

With Or7a (GeneID 31750), what does the deposit list?
mean ATP z-score: 0.731; call: inactive

For tty (GeneID 33109) #1, what was measured?
mean ATP z-score: -0.815; call: inactive

Which result is listed for tty (GeneID 33109) #2?
mean ATP z-score: -0.856; call: inactive

With mthl3 + mthl4, what was measured?
mean ATP z-score: -0.711; call: inactive

What is on record for wfs1 (GeneID 42679)?
mean ATP z-score: 0.4; call: inactive

With CG31729 (GeneID 34736) #1, what does the deposit list?
mean ATP z-score: -0.719; call: inactive

For CG31729 (GeneID 34736) #2, how do the results read?
mean ATP z-score: -0.053; call: inactive

What did the screen give for CG31729 (GeneID 34736) #3?
mean ATP z-score: -0.195; call: inactive

How did the screen score Rh5 (GeneID 34615) #1?
mean ATP z-score: 0.0236; call: inactive

With Rh5 (GeneID 34615) #2, what does the deposit list?
mean ATP z-score: 1.62; call: active

With CG3149 (GeneID 31489) #1, what was measured?
mean ATP z-score: 1.1; call: inactive

What did the screen give for CG3149 (GeneID 31489) #2?
mean ATP z-score: -0.287; call: inactive

How did the screen score Toll-9 (GeneID 40245)?
mean ATP z-score: -1.27; call: inactive

What is on record for PIG-O (GeneID 37118) #1?
mean ATP z-score: 0.448; call: inactive

With PIG-O (GeneID 37118) #2, what does the deposit list?
mean ATP z-score: -0.786; call: inactive

Which result is listed for CG9855 (GeneID 40556)?
mean ATP z-score: -0.279; call: inactive

How did the screen score Octbeta1R (GeneID 42652) #1?
mean ATP z-score: 0.137; call: inactive

What is on record for Octbeta1R (GeneID 42652) #2?
mean ATP z-score: -0.352; call: inactive

For Spase22-23 (GeneID 42885), what was measured?
mean ATP z-score: -0.244; call: inactive

With Ptr (GeneID 35546) #1, how do the results read?
mean ATP z-score: -0.368; call: inactive

With Ptr (GeneID 35546) #2, how do the results read?
mean ATP z-score: -0.417; call: inactive

For CG31522 (GeneID 40567) #1, how do the results read?
mean ATP z-score: 1.46; call: inactive

With CG31522 (GeneID 40567) #2, what does the deposit list?
mean ATP z-score: 1.31; call: inactive
